Laboratory results as given in article PMC5740878.
These are yes or no findings as the source states them, for the method shown. For some of these results: Binding seen in cells or lysates may run through a third protein. Some binding calls cover weakened binding; strength is not graded here. For some of these results: Tags and fused reporters may be left off the sequences shown.

By UniProt entry, the sequences of proteins in these tests, tags left out.
UniProt Q92993: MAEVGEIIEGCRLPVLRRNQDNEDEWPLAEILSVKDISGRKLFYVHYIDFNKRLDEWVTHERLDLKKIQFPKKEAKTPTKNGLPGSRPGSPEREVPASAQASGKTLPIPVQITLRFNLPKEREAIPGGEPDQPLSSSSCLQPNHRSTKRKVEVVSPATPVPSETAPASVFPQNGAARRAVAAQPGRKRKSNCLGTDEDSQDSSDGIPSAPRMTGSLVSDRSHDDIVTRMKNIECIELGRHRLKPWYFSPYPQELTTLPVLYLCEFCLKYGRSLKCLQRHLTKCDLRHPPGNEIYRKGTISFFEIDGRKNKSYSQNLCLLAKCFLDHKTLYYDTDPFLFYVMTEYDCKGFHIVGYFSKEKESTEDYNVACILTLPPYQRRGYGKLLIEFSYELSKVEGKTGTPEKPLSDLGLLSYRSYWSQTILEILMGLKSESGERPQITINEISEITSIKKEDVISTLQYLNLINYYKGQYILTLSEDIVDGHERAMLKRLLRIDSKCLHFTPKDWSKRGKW

Experiments:
[1] = target: His-tagged TIP60 wild type (UniProt Q92993); test: pull-down; His-tagged TIP60 WT or mutants immobilised on Ni-NTA agarose beads; equal quantity of GST-UHRF1 added in PBS with 30 mM imidazole and 0.1% triton; 150 mM NaCl; five washes; SDS-PAGE and Western blot; both purified
[2] = target: His-tagged TIP60 wild type (UniProt Q92993); test: pull-down; same pull-down at higher NaCl (until 500 mM for TIP60WT, up to 1 M for the MYST domain); data not shown; both purified
[3] = target: TIP60-eGFP wild type (UniProt Q92993); test: co-IP; HeLa cells (untransfected or transfected), lysed by freeze shock and sonication in PBS with protease inhibitors; 800 μg to 1 mg lysate with antibody (anti-mCherry, anti-eGFP or anti-UHRF1) 4 h at 4 °C, Dynabeads Protein A 1 h at 4 °C, five washes; Western blot

binding [1]	binding [2]	binding [3]	Binder
binds	binds	–	GST-UHRF1 (protein, UniProt Q96T88 1-793) MWIQVRTMDGRQTHTVDSLSRLTKVEELRRKIQELFHVEPGLQRLFYRGKQMEDGHTLFDYEVRLNDTIQLLVRQSLVLPHSTKERDSELSDTDSGCCLGQSESDKSSTHGEAAAETDSRPADEDMWDETELGLYKVNEYVDARDTNMGAWFEAQVVRVTRKAPSRDEPCSSTSRPALEEDVIYHVKYDDYPENGVVQMNSRDVRARARTIIKWQDLEVGQVVMLNYNPDNPKERGFWYDAEISRKRETRTARELYANVVLGDDSLNDCRIIFVDEVFKIERPGEGSPMVDNPMRRKSGPSCKHCKDDVNRLCRVCACHLCGGRQDPDKQLMCDECDMAFHIYCLDPPLSSVPSEDEWYCPECRNDASEVVLAGERLRESKKKAKMASATSSSQRDWGKGMACVGRTKECTIVPSNHYGPIPGIPVGTMWRFRVQVSESGVHRPHVAGIHGRSNDGAYSLVLAGGYEDDVDHGNFFTYTGSGGRDLSGNKRTAEQSCDQKLTNTNRALALNCFAPINDQEGAEAKDWRSGKPVRVVRNVKGGKNSKYAPAEGNRYDGIYKVVKYWPEKGKSGFLVWRYLLRRDDDEPGPWTKEGKDRIKKLGLTMQYPEGYLEALANREREKENSKREEEEQQEGGFASPRTGKGKWKRKSAGGGPSRAGSPRRTSKKTKVEPYSLTAQQSSLIREDKSNAKLWNEVLASLKDRPASGSPFQLFLSKVEETFQCICCQELVFRPITTVCQHNVCKDCLDRSFRAQVFSCPACRYDLGRSYAMQVNQPLQTVLNQLFPGYGNGR
–	–	binds	endogenous UHRF1 (protein, UniProt Q96T88 1-793) MWIQVRTMDGRQTHTVDSLSRLTKVEELRRKIQELFHVEPGLQRLFYRGKQMEDGHTLFDYEVRLNDTIQLLVRQSLVLPHSTKERDSELSDTDSGCCLGQSESDKSSTHGEAAAETDSRPADEDMWDETELGLYKVNEYVDARDTNMGAWFEAQVVRVTRKAPSRDEPCSSTSRPALEEDVIYHVKYDDYPENGVVQMNSRDVRARARTIIKWQDLEVGQVVMLNYNPDNPKERGFWYDAEISRKRETRTARELYANVVLGDDSLNDCRIIFVDEVFKIERPGEGSPMVDNPMRRKSGPSCKHCKDDVNRLCRVCACHLCGGRQDPDKQLMCDECDMAFHIYCLDPPLSSVPSEDEWYCPECRNDASEVVLAGERLRESKKKAKMASATSSSQRDWGKGMACVGRTKECTIVPSNHYGPIPGIPVGTMWRFRVQVSESGVHRPHVAGIHGRSNDGAYSLVLAGGYEDDVDHGNFFTYTGSGGRDLSGNKRTAEQSCDQKLTNTNRALALNCFAPINDQEGAEAKDWRSGKPVRVVRNVKGGKNSKYAPAEGNRYDGIYKVVKYWPEKGKSGFLVWRYLLRRDDDEPGPWTKEGKDRIKKLGLTMQYPEGYLEALANREREKENSKREEEEQQEGGFASPRTGKGKWKRKSAGGGPSRAGSPRRTSKKTKVEPYSLTAQQSSLIREDKSNAKLWNEVLASLKDRPASGSPFQLFLSKVEETFQCICCQELVFRPITTVCQHNVCKDCLDRSFRAQVFSCPACRYDLGRSYAMQVNQPLQTVLNQLFPGYGNGR
–	–	binds	UHRF1-mCherry (protein, UniProt Q96T88 1-793) MWIQVRTMDGRQTHTVDSLSRLTKVEELRRKIQELFHVEPGLQRLFYRGKQMEDGHTLFDYEVRLNDTIQLLVRQSLVLPHSTKERDSELSDTDSGCCLGQSESDKSSTHGEAAAETDSRPADEDMWDETELGLYKVNEYVDARDTNMGAWFEAQVVRVTRKAPSRDEPCSSTSRPALEEDVIYHVKYDDYPENGVVQMNSRDVRARARTIIKWQDLEVGQVVMLNYNPDNPKERGFWYDAEISRKRETRTARELYANVVLGDDSLNDCRIIFVDEVFKIERPGEGSPMVDNPMRRKSGPSCKHCKDDVNRLCRVCACHLCGGRQDPDKQLMCDECDMAFHIYCLDPPLSSVPSEDEWYCPECRNDASEVVLAGERLRESKKKAKMASATSSSQRDWGKGMACVGRTKECTIVPSNHYGPIPGIPVGTMWRFRVQVSESGVHRPHVAGIHGRSNDGAYSLVLAGGYEDDVDHGNFFTYTGSGGRDLSGNKRTAEQSCDQKLTNTNRALALNCFAPINDQEGAEAKDWRSGKPVRVVRNVKGGKNSKYAPAEGNRYDGIYKVVKYWPEKGKSGFLVWRYLLRRDDDEPGPWTKEGKDRIKKLGLTMQYPEGYLEALANREREKENSKREEEEQQEGGFASPRTGKGKWKRKSAGGGPSRAGSPRRTSKKTKVEPYSLTAQQSSLIREDKSNAKLWNEVLASLKDRPASGSPFQLFLSKVEETFQCICCQELVFRPITTVCQHNVCKDCLDRSFRAQVFSCPACRYDLGRSYAMQVNQPLQTVLNQLFPGYGNGR
